# Some of these results come from one statement about several compounds together.
# Test system: P. aeruginosa strain PAK (N0049)
# Test: Checkerboard assay, MD3 combined with a second antibiotic
# Format: cell-based, Pseudomonas aeruginosa
# Procedure: To quantify the combined effects of MD3 and a secondary antibiotic, a checkerboard assay was used, which is a two-dimensional, two-agent serial dilution that quantifies the effect of each drug alone and in combination. In patients with underlying pulmonary disease such as bronchiectasis, significant mucus in the lung results in bacterial infections that are primarily microaerobic (little oxygen) or anaerobic (no oxygen). Therefore, combinations of MD3 and six secondary antibiotics were evaluated under both aerobic and anaerobic conditions for a representative organism, Pseudomonas aeruginosa.
# The checkerboard method was performed as follows. MD3 and the second antibiotic were tested at four times (4×) their minimum inhibitory concentration (MIC) alone (see Table 3). Stock solutions of MD3 and the secondary antibiotics were prepared at 4× the final concentration (i.e., 16× the MIC; called the 4× stocks).
# MD3 and secondary antibiotics were tested at 4× their minimum inhibitory concentration (MIC) alone. […] MD3 and antibiotics were tested across a 7-point range of 2-fold concentration, as detailed in Table 3.
# Bacterial cultures were prepared from frozen glycerol stocks stored at −80° C. by streaking on agar plates (see Table 4). Several well-isolated colonies were suspended in IX PBS, then diluted to 1×10^6 CFU/ml in liquid media. The cultures were diluted to 5×10^5 CFU/ml, when added to the antibiotic combinations in the checkerboard assay plate. Because colonies from strains N0010, N0046, and N0124 are difficult to suspend homogenously, they were first sub-cultured in 7H9 liquid media containing Middlebrook ADC supplement and 0.05% Tween-80, then incubated at 37° C. shaking for 3 days. This subculture was used to prepare the 1×10^6 CFU/ml culture.
# To prepare the checkerboard assay plates, phosphate buffered saline (PBS) was added to wells BI through H8 of a 96-well plate. […]
# The FICI was calculated for each well along the growth/no-growth border of the checkerboard assay plate. […]
substance,measurement,setting,value
Colistin [CST],Interaction of MD3 with the antibiotic (FICI classification),aerobic conditions,synergistic (FICI values of ≤0.5 are considered synergistic)
same,Interaction of MD3 with the antibiotic (FICI classification),anaerobic conditions,additive (values of 0.51 to 1 are additive)
same,Interaction of MD3 with the antibiotic (FICI classification),"summary statements, aerobic or anaerobic not separated",synergistic (FICI values of ≤0.5 are considered synergistic)

# From patent US20260248819A1, “MULTI-COMPONENT PHARMACEUTICAL COMPOSITIONS AND KITS CONTAINING NITRIC OXIDE RELEASING COMPOUNDS AND METHODS OF USING SAME” (priority 2022, published 2026)
